# Assay results from patent US10550091B2, “1,4,5-substituted 1,2,3-triazole analogues as antagonists of the pregnane X receptor” (ST. JUDE CHILDREN'S RESEARCH HOSPITAL, priority 2016, dated 2020).
# System: HepG2 cells
# Test: HepG2 cytotoxicity assay (CellTiter Glo)
# Assay type: cell-based, human
# Conditions: positive control, HepG2, 72 h
structure (smiles),measurement,value
"CN[C@@H]1C[C@H]2O[C@@](C)([C@@H]1OC)n1c3ccccc3c3c4c(c5c6ccccc6n2c5c31)C(=O)NC4 [Staurosporine, reference compound]",IC50,0.096 µM
